Data as given in PMC7819943, “Rice protein-binding microarrays: a tool to detect cis-acting elements near promoter regions in rice”.
The other results are listed elsewhere or left out.

What follows are sequences tested against T1, OsSMF1 (Oryza sativa, UniProt Q6ZLB0 1-436) (assay: protein-binding microarray (RPBM); PBS, 2% BSA, 51.3 ng/ul salmon testes DNA, 50 uM zinc acetate, 200 nM TF, 25 C, 1 h; high values mean tight binding). Conditions: protein: recombinant; tags: N-terminal polyhistidine and DsRed monomer fusion (pET32a); chain copies: 2; label: CyDye5-dUTP incorporated in the synthesized complementary strand; 3' TTTTT single-stranded linker to array surface; dsDNA, one strand shown.
T1 sequence: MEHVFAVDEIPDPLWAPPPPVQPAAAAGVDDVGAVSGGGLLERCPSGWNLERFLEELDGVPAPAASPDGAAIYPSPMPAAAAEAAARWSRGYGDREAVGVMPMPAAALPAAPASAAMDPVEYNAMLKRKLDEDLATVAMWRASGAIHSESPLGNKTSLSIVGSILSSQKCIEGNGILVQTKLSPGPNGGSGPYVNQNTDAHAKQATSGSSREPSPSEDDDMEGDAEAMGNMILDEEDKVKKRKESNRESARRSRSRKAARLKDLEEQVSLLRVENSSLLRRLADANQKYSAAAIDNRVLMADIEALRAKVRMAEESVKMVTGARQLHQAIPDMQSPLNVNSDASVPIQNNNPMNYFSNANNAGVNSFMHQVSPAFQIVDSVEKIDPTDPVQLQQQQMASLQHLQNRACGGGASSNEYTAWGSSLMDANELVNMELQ
Method in brief: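 Using Ni–NTA, transcription factors fused N-terminally to polyhistidine and DsRed were purified after expression in E. coli BL21-CodonPlus. These were incubated at 200 nM with a blocked, double-stranded custom Agilent array for 1 h at 25 °C in a buffer containing 50 µM zinc acetate, and the array was washed. The binding signal is per-feature fluorescence intensity (arbitrary units) on an Axon 4000B scanner.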

Row | Sequence | binding signal
1 | CGTGTCCAACACTACAGCAGCGCCTCTGCCACCAGCCAACCGGAGTCACCTAGTGCAG | 3740 fluorescence intensity (a.u.)
2 | CGATCACGTTATAAATTTTAGCGTCGGATTTCATGCTCTCCGGAGTCACCTAGTGCAG | 6620 fluorescence intensity (a.u.)
3 | GCGGGTGCTCTTGCGGGCAGATCCAGCAGTGACAATGACTCGGAGTCACCTAGTGCAG | 3280 fluorescence intensity (a.u.)
4 | AAGATGGTCACGTCTACGAGCACGCGGGTCAGAAAACGGACGGAGTCACCTAGTGCAG | 3380 fluorescence intensity (a.u.)
5 | CTTACAGCATCAAGAACATGGAGAACACGTCAGAAACTAACGGAGTCACCTAGTGCAG | 5700 fluorescence intensity (a.u.)
6 | GCTCGAAGCTGACATGGCGATGACGGGGACGGCGCCCTGGCGGAGTCACCTAGTGCAG | 8950 fluorescence intensity (a.u.)
7 | GTCACCATGTGAACACGTATGCTTCTCTTCATTCATTCTTCGGAGTCACCTAGTGCAG | 7220 fluorescence intensity (a.u.)
8 | GATACTGGACGAGAGCGTGGAATGCGCGGTGAGACTTGGTCGGAGTCACCTAGTGCAG | 38800 fluorescence intensity (a.u.)
9 | CCACATATCCACTTAACCAGTTAGATTATTCGGTATATCCCGGAGTCACCTAGTGCAG | 4230 fluorescence intensity (a.u.)
10 | AACAACCAGAGCTTTGGCTCTGTTCATCCAAAGGCGTTCCCGGAGTCACCTAGTGCAG | 24200 fluorescence intensity (a.u.)
11 | TGGAGAGGGAGGAGGAAGAAGATGAGGGGTGAGTATGACACGGAGTCACCTAGTGCAG | 4020 fluorescence intensity (a.u.)
12 | GCACGATAGGCTGTCGTGCCTTCGTTCGAACCGGCACGACCGGAGTCACCTAGTGCAG | 27100 fluorescence intensity (a.u.)
13 | TCGTCGCCGCTGTCGTGGCCTCCTTGAGCCCTTGACGAGGCGGAGTCACCTAGTGCAG | 5100 fluorescence intensity (a.u.)
14 | ATGTCTGCGGCCGTCACGTGCAGTATTTATCCGCCGACCCCGGAGTCACCTAGTGCAG | 4810 fluorescence intensity (a.u.)
15 | CCGCACGCCAAGTCCCCACGCTGACCCACCTCGCTGCGTGCGGAGTCACCTAGTGCAG | 5320 fluorescence intensity (a.u.)
16 | GGTTTACTTGTTTGGTCGGCGCTACACGTGGTGTAATGAGCGGAGTCACCTAGTGCAG | 5950 fluorescence intensity (a.u.)
17 | CTCCATATGGATGACAGGGAAAGATATTTCTTTAAGGTTACGGAGTCACCTAGTGCAG | 3320 fluorescence intensity (a.u.)
18 | AACCGGACTGGTTTCTCTTACGTGGCTCCCTTTACATTACCGGAGTCACCTAGTGCAG | 14000 fluorescence intensity (a.u.)
19 | GGCTTACCGCTAGGGAAGAAGTGGTACGATGTGGGGATAGCGGAGTCACCTAGTGCAG | 22000 fluorescence intensity (a.u.)
20 | ATTACAGTACGATTGTACTGTAATTACATCTGTCAAATTTCGGAGTCACCTAGTGCAG | 18600 fluorescence intensity (a.u.)
21 | AGTGTCTCTATTATCACAAAACTATAGGTTTTAGCATTGTCGGAGTCACCTAGTGCAG | 21000 fluorescence intensity (a.u.)

Fetched one by one from above:
Row | Sequence | binding signal
12 | GCACGATAGGCTGTCGTGCCTTCGTTCGAACCGGCACGACCGGAGTCACCTAGTGCAG | 27100 fluorescence intensity (a.u.)
2 | CGATCACGTTATAAATTTTAGCGTCGGATTTCATGCTCTCCGGAGTCACCTAGTGCAG | 6620 fluorescence intensity (a.u.)

Further records.

Row | Sequence | binding signal
22 | GTAGTAGTATACTCCTTGTCAGTCAGTCTGTAGCTAGTCACGGAGTCACCTAGTGCAG | 3560 fluorescence intensity (a.u.)
23 | CCTCCCCACGTCGCCAAATCCACCCACGTCGCCGCCGATCCGGAGTCACCTAGTGCAG | 5060 fluorescence intensity (a.u.)
24 | GCCACTGAGCCATGCCACGGCATCGGCCTTCTCCTCGGCACGGAGTCACCTAGTGCAG | 4310 fluorescence intensity (a.u.)
25 | TCAAATTCTTGCGTGTCCATGTCACTACCCTTTTGTAACTCGGAGTCACCTAGTGCAG | 7090 fluorescence intensity (a.u.)
26 | TGGCTCGCCGCAGCAGAAGGGGATAAGAGGGATTATGACACGGAGTCACCTAGTGCAG | 3710 fluorescence intensity (a.u.)
27 | GCTTGCCAAATGTCAACGCACGAGTTGTACTCTCTTATTGCGGAGTCACCTAGTGCAG | 3420 fluorescence intensity (a.u.)
28 | GCTGCCGTGCTGCACCTATAAATTCACATGCACCGGCATGCGGAGTCACCTAGTGCAG | 3540 fluorescence intensity (a.u.)
29 | ATGGAACGGCGACACGGCCTTGTGTGGGCATGGCAGGCGGCGGAGTCACCTAGTGCAG | 33400 fluorescence intensity (a.u.)
30 | TTTGAGGCAGATGGCTGAAGACCACCATTGCCACCTCAAGCGGAGTCACCTAGTGCAG | 3190 fluorescence intensity (a.u.)
31 | CGGCGGAGGAGGAGGAGGAGGGGTGGGGAAGAAGAGGGGACGGAGTCACCTAGTGCAG | 4120 fluorescence intensity (a.u.)
32 | GAGCCCATTGTGAAATCTGTTTTGTACCCTTAGTCATCGTCGGAGTCACCTAGTGCAG | 4020 fluorescence intensity (a.u.)
33 | TGAACTTGGAAGGGTAGGGTCTGCGCTTGTCCTGACGAGGCGGAGTCACCTAGTGCAG | 3470 fluorescence intensity (a.u.)
34 | GGTGGAGCTTTCTCACAAAATGAACTAGAAAGGTGAAACTCGGAGTCACCTAGTGCAG | 34700 fluorescence intensity (a.u.)
35 | CGCCGCGCGCTGCCCGCACGCACCCACCCACGTCGCGTCACGGAGTCACCTAGTGCAG | 6510 fluorescence intensity (a.u.)
36 | CAGCAATGCTATGTTTAATTTAACCACGCACAGAGCAAGGCGGAGTCACCTAGTGCAG | 27600 fluorescence intensity (a.u.)
37 | AACAAAACAATGTTTATATATGTCTTCATTTGAACATATTCGGAGTCACCTAGTGCAG | 25400 fluorescence intensity (a.u.)
38 | TGGCTAAGCAATAGCTATAGTAGTAGCTCGAATATACCCACGGAGTCACCTAGTGCAG | 25700 fluorescence intensity (a.u.)
39 | CACGTTTCGTAAAGTACACGTCACCATTGATTAGCGAATACGGAGTCACCTAGTGCAG | 6630 fluorescence intensity (a.u.)
40 | CTGGGAGGCCTCACTTCCAAATAACTTCTTGTCCAACGAACGGAGTCACCTAGTGCAG | 20200 fluorescence intensity (a.u.)
41 | AGACGCTGACAGGCCGGCTCCCACCTCCCAAGTCTCCAGTCGGAGTCACCTAGTGCAG | 3920 fluorescence intensity (a.u.)
42 | TAAATTGTTTTAGTCTGAGTGACGACTGCACCGTTACCAGCGGAGTCACCTAGTGCAG | 4010 fluorescence intensity (a.u.)
